Source: publication PMC9788671
These are yes or no findings as the source states them, for the method shown. In cells and extracts the contact can be indirect. Here binding means that the protein was enriched with, or labelled near, the bait; the list need not be complete.

Amino acid sequences for entries named in this document (tags omitted).
UniProt Q9NZV8: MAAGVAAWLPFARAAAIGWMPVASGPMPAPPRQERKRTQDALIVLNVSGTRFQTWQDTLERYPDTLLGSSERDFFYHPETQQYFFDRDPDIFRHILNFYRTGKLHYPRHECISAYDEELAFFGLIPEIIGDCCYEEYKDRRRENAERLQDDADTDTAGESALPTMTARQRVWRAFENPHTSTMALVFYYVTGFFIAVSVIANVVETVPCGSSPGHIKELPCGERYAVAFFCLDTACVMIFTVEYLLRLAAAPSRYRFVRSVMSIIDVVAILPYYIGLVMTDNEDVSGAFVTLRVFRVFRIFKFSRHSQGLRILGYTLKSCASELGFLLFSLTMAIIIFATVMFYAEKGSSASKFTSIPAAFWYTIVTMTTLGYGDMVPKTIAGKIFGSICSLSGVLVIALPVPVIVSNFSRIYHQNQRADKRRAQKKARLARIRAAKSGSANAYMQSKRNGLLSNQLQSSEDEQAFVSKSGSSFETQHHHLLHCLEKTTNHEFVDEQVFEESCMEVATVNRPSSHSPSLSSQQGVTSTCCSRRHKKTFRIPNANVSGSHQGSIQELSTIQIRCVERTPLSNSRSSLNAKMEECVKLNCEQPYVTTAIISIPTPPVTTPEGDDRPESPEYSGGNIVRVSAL

Molecular target: TAP-Kv4.2 (human) (UniProt Q9NZV8)
Experiment: affinity purification with mass spectrometry; TAP-Kv4.2 expressed by lentivirus in rat hippocampal neurons, harvested at DIV14; weak lysis buffer of the kit (0.1% NP-40); streptavidin resin, then calmodulin resin; gel cut into high and low molecular weight fragments; no MS of the control sample

Binder | binding
Brsk2 (protein, UniProt D3ZML2 1-735) MTSTGKDGGGAQHAQYVGPYRLEKTLGKGQTGLVKLGIHCVTCQKVAIKIVNREKLSESVLMKVEREIAILKLIEHPHVLKLHDVYENKKYLYLVLEHVSGGELFDYLVKKGRLTPKEARKFFRQIISALDFCHSHSICHRDLKPENLLLDERNNIRIADFGMASLQVGDSLLETSCGSPHYACPEVIRGEKYDGRKADVWSCGVILFALLVGALPFDDDNLRQLLEKVKRGVFHMPHFIPPDCQSLLRGMIEVDAARRLTLEHIQKHIWYIGGKNEPEPEQPIPRKVQIRSLPSLEDIDPDVLDSMHSLGCFRDRNKLLQDLLSEEENQEKMIYFLLLDRKERYPSHEDEDLPPRNEIDPPRKRVDSPMLNRHGKRRPERKSMEVLSVTDGGSPVPARRAIEMAQHGQRSRSISGASSGLSTSPLSSPRVTPHPSPRGSPLPTPKGTPVHTPKESPAGTPNPTPPSSPSVGGVPWRTRLNSIKNSFLGSPRFHRRKLQVPTPEEMSNLTPESSPELGHLQLFGNPVSKVRSVAMELVILVQTLAYTSFRLLGTFLPVRYLRHSVLSRPPERARLVLRGAPCTHMGPVWNMVGMAYTQNPPIMGETGVYGSQWVMSSAPSKHYTSLGLSVPSPSCSLSPSLFPFCAPDTTNCMEVMTGRLSKCGTPLSNFFDVIKQLFSDEKNGQAAQAPSTPAKRSAHGPLGDSAAAGPGGDTEYPMGKDMAKMGPPAARREQP | binds
Gpd2 (protein, UniProt P35571 43-727) ATCFSEPVNREPPSREAQLMTLQNTSEFDILVIGGGATGCGCALDAVTRGLKTALVERNDFASGTSSRSTKLIHGGVRYLQKAITNLDVEQYRMVKEALHERANLLEIAPHLSAPLPIMLPLYKWWQLPYYWVGIKMYDLVAGSHCLKSSYVLSKSRALEHFPMLQKDKLVGAIVYYDGQHNDARMNLAIALTAARYGAATANYMEVVSLLKKTDPETGKERVSGARCKDVLTGHEFNVRAKCVINATGPFTDSVRKMDDNDVVPICQPSAGVHIVMPGYYSPENMGLLDPATSDGRVIFFLPWEKMTIAGTTDSPTDVTHHPIPSEDDINFILNEVRNYLSCDVEVRRGDVLAAWSGIRPLVTDPKSANTQSISRNHVVEVSDSGLITIAGGKWTTYRSMAEDTVNKAVKLHNLNAGPSRTVGLFLQGGKDWSPTLYIRLVQDYGLESEVAQHLAKTYGDKAFDVAKMASVTGKRWPVVGVRLVSEFPYIEAEVKYGIKEYACTAVDMISRRTRLAFLNVQAAEEALPKIVELMGRELNWSELRKQEELETATRFLYYEMGYKSRTEQLTDSTEISLLPPDIDRYKKRFHMFDEDEKGFITIVDVQRVLESINVQMDEDTLHEILCEVDLNKNGQVELHEFLQLMSAVHTGRVSGSRLAILMKTAEENLDRRVPIPVDRSCGGL | binds
Trim3 (protein, UniProt O70277 1-744) MAKREDSPGPEVQPMDKQFLVCSICLDRYRCPKVLPCLHTFCERCLQNYIPPQSLTLSCPVCRQTSILPEQGVSALQNNFFISSLMEAMQQAPDGAHDPEDPHPLSAVAGRPLSCPNHEGKTMEFYCEACETAMCGECRAGEHREHGTVLLRDVVEQHKAALQRQLEAVRGRLPQLSAAIALVGGISQQLQERKAEALAQISAAFEDLEQALQQRKQALVSDLESICGAKQKVLQTQLDTLRQGQEHIGSSCSFAEQALRLGSAPEVLLVRKHMRERLAALAAQAFPERPHENAQLELVLEVDGLRRSVLNLGALLTTSAAAHETVATGEGLRQALVGQPASLTVTTKDKDGRLVRTGSAELCAEITGPDGMRLAVPVVDHKNGTYELVYTARTEGDLLLSVLLYGQPVRGSPFRVRALRPGDLPPSPDDVKRRVKSPGGPGSHVRQKAVRRPSSMYSTGGKRKDNPIVDELVFRVGSRGREKGEFTNLHPLSAASSGRIVVADSNNQCIQVFSNEGQFKFRFGVRGRSPGQLQRPTGVAVDTNGDIIVADYDNRWVSIFSPEGKFKTKIGAGRLMGPKGVAVDRNGHIIVVDNKSCCVFTFQPNGKLVGRFGGRGATDRHFAGPHFVAVNNKNEIVVTDFHNHSVKVYSADGEFLFKFGSHGEGNGQFNAPTGVAVDSNGNIIVADWGNSRIQVFDSSGSFLSYINTSAEPLYGPQGLALTSDGHVVVADAGNHCFKAYRYLQ | binds
